Structures can show the parent of a compound that is named as a salt. ± gives the standard deviation of the averaged measurements. Some of the results follow. This data set is noisy: repeats of one test often differ as much as different tests do.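 Cells were counted by imaging DAPI-stained nuclei, and cells lacking phalloidin-stained cytoplasm were excluded as dead. Each well's count was divided by the median count of the vehicle wells on the same plate, and values were averaged over two replicate plates.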
Tested on: OVCAR8
Test: cell count relative to DMSO vehicle (fold change); higher = more surviving senescent cells (less killing)
Details: senescence inducer: cisplatin 10 µM 48 h, then 6 d recovery (CP senescent), exposure time 24 h

## Cc1nc[nH]c1CN1CCN(C(=O)N[C@@H](CC(C)C)C(=O)O)[C@@H](Cc2ccccc2)C1=O
Compound dose 1 µM
  cell count: 1.12 ± 0.017
Compound dose 5 µM
  cell count: 0.631 ± 0.1

## CC(C)C(C(=O)O)N1C(=O)C(=Cc2ccc(Br)cc2)SC1=S (centres undefined)
Compound dose 1 µM
  cell count: 1.19 ± 0.17
Compound dose 5 µM
  cell count: 1.14 ± 0.16

## Nc1ncnc2c1c(-c1cccc(OCc3ccccc3)c1)cn2C1CC(CN2CCCC2)C1 (centres undefined)
Compound dose 1 µM
  cell count: 1.21 ± 0.033
Compound dose 5 µM
  cell count: 1.01 ± 0.096

## CC(=O)O[C@H]1CC[C@]2(C)[C@H]3CC=C4[C@@H]5CC(C)(C)CC[C@]5(C(=O)O)CC[C@@]4(C)[C@]3(C)CC[C@H]2C1(C)C
Compound dose 1 µM
  cell count: 1.26 ± 0.32
Compound dose 5 µM
  cell count: 1.15 ± 0.03

## Cc1cc2ncnn2cc1Nc1ncc2c(n1)n(C1CCOCC1)c(=O)n2C
Compound dose 1 µM
  cell count: 0.934 ± 0.21
Compound dose 5 µM
  cell count: 1.02 ± 0.016

## C[C@@H]1CC[C@]2(C(=O)O[C@@H]3O[C@H](CO)[C@@H](O)[C@H](O)[C@H]3O)CC[C@]3(C)C(=CC[C@@H]4[C@@]5(C)CC[C@H](O[C@@H]6OC[C@H](O)[C@H](O)[C@H]6O)C(C)(C)[C@@H]5CC[C@]43C)[C@@H]2[C@]1(C)O [Ziyuglycoside I]
Compound dose 1 µM
  cell count: 1.07 ± 0.1
Compound dose 5 µM
  cell count: 0.616 ± 0.09

## O=C(Nc1cc(Cl)cc2c1[nH]c1cnccc12)c1cccnc1
Compound dose 1 µM
  cell count: 0.76 ± 0.46
Compound dose 5 µM
  cell count: 1.08 ± 0.018

## O=S(=O)(NCCN1CCNCC1)c1ccc(NC2CCCCC2)c(NCc2ccccc2)c1 [UAMC-3203 hydrochloride]
Compound dose 1 µM
  cell count: 0.991 ± 0.082
Compound dose 5 µM
  cell count: 0.748 ± 0.15

## COc1cc(N2CCC(N3CCN(C)CC3)CC2)ccc1Nc1ncc(Cl)c(Nc2ccccc2S(=O)(=O)C(C)C)n1
Compound dose 1 µM
  cell count: 0.901 ± 0.024
Compound dose 5 µM
  cell count: 0.799 ± 0.015

## CC(C)c1nc(CN(C)C(=O)N[C@H](C(=O)N[C@@H](Cc2ccccc2)C[C@H](O)[C@H](Cc2ccccc2)NC(=O)OCc2cncs2)C(C)C)cs1 [Ritonavir]
Compound dose 1 µM
  cell count: 0.986 ± 0.061
Compound dose 5 µM
  cell count: 0.566 ± 0.28

## COc1ccc(CCCOC(Cn2ccnc2)c2ccc(OC)cc2)cc1 (centres undefined)
Compound dose 1 µM
  cell count: 1.08 ± 0.019
Compound dose 5 µM
  cell count: 0.746 ± 0.24

## COc1c(O)cc2c(c1O)[C@@H]1O[C@H](CO)[C@@H](O)[C@H](O)[C@H]1OC2=O [Bergenin]
Compound dose 1 µM
  cell count: 0.7785 ± 0.005
Compound dose 5 µM
  cell count: 0.729 ± 0.027

## Clc1cccc(CN=C2Nc3ccccc3NC23CCNCC3)c1 [Liproxstatin-1]
Compound dose 1 µM
  cell count: 1.1 ± 0.083
Compound dose 5 µM
  cell count: 0.948 ± 0.19

## C[C@H]1[C@H](C)CC[C@]2(C(=O)O)CC[C@]3(C)C(=CC[C@@H]4[C@@]5(C)C[C@@H](O)[C@H](O)[C@@](C)(CO)[C@@H]5[C@H](O)C[C@]43C)[C@H]12 [Madecassic acid]
Compound dose 1 µM
  cell count: 0.905 ± 0.12
Compound dose 5 µM
  cell count: 0.749 ± 0.088

## CNc1ccc([N+](=O)[O-])c(Nc2ccc3[nH]ncc3c2)n1
Compound dose 1 µM
  cell count: 1.14 ± 0.081
Compound dose 5 µM
  cell count: 1.14 ± 0.11

## O=C(O)CCC(=O)c1ccc(-c2ccccc2)cc1
Compound dose 1 µM
  cell count: 0.857 ± 0.037
Compound dose 5 µM
  cell count: 0.658 ± 0.22

## CCOC(=O)c1ccc(NC2CCCCC2)c(N)c1 [Ferrostatin-1]
Compound dose 1 µM
  cell count: 1 ± 0.16
Compound dose 5 µM
  cell count: 0.452 ± 0.18

## C[C@@H]1O[C@@H](O[C@H]2[C@H](O[C@H]3CC[C@@]4(C)[C@@H](CC[C@]5(C)[C@@H]4CC=C4[C@@H]6CC(C)(C)CC[C@]6(C(=O)O)CC[C@]45C)[C@]3(C)CO)OC[C@H](O)[C@@H]2O)[C@H](O)[C@H](O)[C@H]1O [alpha-Hederin]
Compound dose 1 µM
  cell count: 0.87 ± 0.018
Compound dose 5 µM
  cell count: 1.03 ± 0.012

## CC1(C)CC[C@]2(NC(=O)C(C)(F)F)CC[C@]3(C)[C@H](C(=O)C=C4[C@@]5(C)C=C(C#N)C(=O)C(C)(C)[C@@H]5CC[C@]43C)[C@@H]2C1 [Omaveloxolone]
Compound dose 1 µM
  cell count: 0.381 ± 0.031
Compound dose 5 µM
  cell count: 0.026 ± 0.011

## O=C(NNc1nc2cc(F)ccc2n2cccc12)c1cnccn1
Compound dose 1 µM
  cell count: 1.07 ± 0.2
Compound dose 5 µM
  cell count: 0.788 ± 0.15

## CCN1C(=O)C=CC1=O [N-Ethylmaleimide]
Compound dose 1 µM
  cell count: 1.13 ± 0.052
Compound dose 5 µM
  cell count: 1.11 ± 0.12

## COc1ccc2[nH]cc(/C=C3\C(=O)Nc4ccc(NC(=O)CCN5CCCCC5)cc43)c2c1
Compound dose 1 µM
  cell count: 0.827 ± 0.085
Compound dose 5 µM
  cell count: 0.545 ± 0.045

## CNC(=O)COc1cc2cc(Nc3nc(N4CCC(C(=O)N(C)C)CC4)ncc3Cl)cc(OC)c2n(C)c1=O
Compound dose 1 µM
  cell count: 1.15 ± 0.057
Compound dose 5 µM
  cell count: 1.15 ± 0.036

## COc1cc(Nc2ncc3c(n2)-c2ccc(Cl)cc2C(c2c(F)cccc2OC)=NC3)ccc1C(=O)O [Alisertib (MLN8237)]
Compound dose 1 µM
  cell count: 1.07 ± 0.094
Compound dose 5 µM
  cell count: 0.934 ± 0.021

## O=c1cc(N2CCOCC2)oc2c(-c3ccccc3)cccc12
Compound dose 1 µM
  cell count: 0.982 ± 0.17
Compound dose 5 µM
  cell count: 1.03 ± 0.17

## COc1ccc2cc1Oc1ccc(cc1)C[C@H]1c3cc(c(OC)cc3CCN1C)Oc1c(O)c(OC)cc3c1[C@H](C2)N(C)CC3 [Fangchinoline]
Compound dose 1 µM
  cell count: 1.14 ± 0.12
Compound dose 5 µM
  cell count: 1.04 ± 0.17

## Nc1cc(C(F)(F)F)c(-c2cc(N3CCOCC3)nc(N3CCOCC3)n2)cn1 [Buparlisib (BKM120, NVP-BKM120)]
Compound dose 1 µM
  cell count: 0.736 ± 0.083
Compound dose 5 µM
  cell count: 0.359 ± 0.099

## O=C(O)c1cc(=O)c2ccccc2[nH]1 [Kynurenic acid (sodium)]
Compound dose 1 µM
  cell count: 0.867 ± 0.076
Compound dose 5 µM
  cell count: 0.679 ± 0.028

## O=C(O)c1cc(=O)c2ccccc2[nH]1
Compound dose 1 µM
  cell count: 1.01 ± 0.14
Compound dose 5 µM
  cell count: 0.416 ± 0.12

## Clc1ccc(C(c2ccccc2Cl)C(Cl)Cl)cc1 (centres undefined)
Compound dose 1 µM
  cell count: 0.881 ± 0.11
Compound dose 5 µM
  cell count: 0.815 ± 0.0092

## O=C1O[C@H]([C@@H](O)CO)C(O)=C1O [L-Ascorbic acid]
Compound dose 1 µM
  cell count: 1.12 ± 0.17
Compound dose 5 µM
  cell count: 1.06 ± 0.017

## O=C(O)C1(c2ccc(-c3ccc(Cl)c(Cl)c3)c(F)c2)CC1 [Itanapraced]
Compound dose 1 µM
  cell count: 0.741 ± 0.47
Compound dose 5 µM
  cell count: 0.654 ± 0.1

## CCCCN1CCCC[C@H]1C(=O)Nc1c(C)cccc1C [Levobupivacaine (hydrochloride)]
Compound dose 1 µM
  cell count: 0.986 ± 0.16
Compound dose 5 µM
  cell count: 0.938 ± 0.037

## CNCc1ccc(C)c(NC(=O)c2ccc(Nc3nc(-c4ccccc4)c4ccccc4n3)cc2)c1
Compound dose 1 µM
  cell count: 0.989 ± 0.069
Compound dose 5 µM
  cell count: 0.714 ± 0.058

## CCCc1cc2c(N3CCN(C4=NCC(C)(C)S4)CC3)ncnc2s1 [MI-2 (Menin-MLL Inhibitor)]
Compound dose 1 µM
  cell count: 1.07 ± 0.078
Compound dose 5 µM
  cell count: 0.656 ± 0.49

## Fc1ccc(Nc2nc(Nc3ccc(-c4nc5ccccc5[nH]4)cc3)nc(N3CCOCC3)n2)cc1
Compound dose 1 µM
  cell count: 1.14 ± 0.12
Compound dose 5 µM
  cell count: 0.695 ± 0.36

## Cc1cc(F)c(C(=O)Nc2cccc(-c3nncn3C(C)C)n2)cc1-n1cnc(C2CC2)c1 [Selonsertib]
Compound dose 1 µM
  cell count: 0.945 ± 0.018
Compound dose 5 µM
  cell count: 0.615 ± 0.26

## O=C(Nc1ccc(CN2CCOCC2)cc1)c1ccc(-c2cccc(Cl)c2)o1
Compound dose 1 µM
  cell count: 0.962 ± 0.089
Compound dose 5 µM
  cell count: 1.34 ± 0.034

## CN1CCN(c2ccc3nc(-c4ccc5nc(-c6cccc(OCCCC(=O)NCCCN=[N+]=[N-])c6)[nH]c5c4)[nH]c3c2)CC1 [Targapremir-210]
Compound dose 1 µM
  cell count: 1.2 ± 0.051
Compound dose 5 µM
  cell count: 0.811 ± 0.21

## O=C(c1ccc(F)c(F)c1Nc1ccc(I)cc1F)N1CC(O)([C@@H]2CCCCN2)C1 [Cobimetinib]
Compound dose 1 µM
  cell count: 1.01 ± 0.069
Compound dose 5 µM
  cell count: 0.9 ± 0.0099

## CCCCS(=N)(=O)CCC(N)C(=O)O (centres undefined)
Compound dose 1 µM
  cell count: 1.15 ± 0.18
Compound dose 5 µM
  cell count: 0.972 ± 0.25

## C=CC(=O)N1CCC[C@H](n2c(=O)n(-c3ccc(Oc4ccccc4)cc3)c3c(N)ncnc32)C1 [ONO-4059 (analog)]
Compound dose 1 µM
  cell count: 1.12 ± 0.059
Compound dose 5 µM
  cell count: 0.852 ± 0.12

Reference: the supplement of paper PMC12462457
